Some results were stated once for a whole list of compounds, not compound by compound.
How the values were obtained:
[1] = Optical microscopy: crystal shape and aspect ratio; assay type: physicochemical; conditions: 40× magnification
Description: The “aspect ratio” of a crystal is defined as the ratio of its longest dimension to its shortest dimension. As used herein, “aspect ratio” is the quotient of the division of a crystal's length by its width. The aspect ratio of crystals can be obtained by taking micrographs of a batch of crystal (See General Experimental Conditions. Optical Microscopy).
The micrographs were taken at 40× magnification.
The aspect ratio of crystals was obtained from micrographs of a batch of crystal. Micrographs were processed with ImageJ 1.42q software. Length and width of at least 100 representative crystals (i.e., having an area greater than 500 μm^2 for a 40× magnification image) was measured, and the aspect ratio of each crystal was calculated by dividing the crystal length by the crystal width. The average aspect ratio for each batch was determined by dividing the sum of crystal aspect ratios by the number of crystals measured.

[2] = Chargeability observed when handling crystals with a metallic material; assay type: physicochemical
Description: Drug substances in solid form can suffer electrostatic charging by contact or friction electrification (tribocharging) caused by interactions among particles or between particles and the surfaces that contain them. These interactions can affect formulation, manufacture, powder flow, and packing behaviour. In addition, it has been reported that electrostatic charges are also responsible for problems in blend uniformity. The net positive or negative tendency of dry powders to become charged electrostatically is called chargeability.
There is no standard instrument for the measurement of the chargeability of dry powders (see AAPS PharmSciTech 2006, 7, Article 103). Triboelectric charge is commonly reported on a charge-to-mass basis since net charge and mass can be easily measured. However, triboelectric and induction charging are more closely related to the surface area of a particle rather to volume or mass. Then, it is well known that the surface area of the particles plays a key role in dry powder chargeability, and that therefore the particles having a higher specific surface area can hold a greater charge.

Compound: NC(=O)Cc1cccc(C(=O)c2ccccc2)c1N [Example 1, 2-amino-3-benzoylbenzeneacetamide]
- Crystal shape [1]: plate-like shape
- Chargeability [2]: Reduced chargeability

Compound: NC(=O)Cc1cccc(C(=O)c2ccccc2)c1N [Example 2, 2-amino-3-benzoylbenzeneacetamide]
- Crystal shape [1]: plate-like shape
- Chargeability [2]: Reduced chargeability

Compound: NC(=O)Cc1cccc(C(=O)c2ccccc2)c1N [Example 3, 2-amino-3-benzoylbenzeneacetamide]
- Crystal shape [1]: plate-like shape
- Chargeability [2]: Reduced chargeability

Compound: NC(=O)Cc1cccc(C(=O)c2ccccc2)c1N [Example 4, 2-amino-3-benzoylbenzeneacetamide]
- Crystal shape [1]: plate-like shape
- Chargeability [2]: Reduced chargeability
